{
  "source": "patent US8765920B2",
  "about": "“Tyrosine bioconjugation through aqueous Ene-like reactions” (priority 2009, dated 2014)",
  "key": {"[1]": {"test": "Stability study of modified p-cresol under thermal conditions", "type": "physicochemical", "conditions": "120° C. for 1 h", "experimental": "Compound 4, the product of the reaction of p-cresol and PTAD, was subjected to both strongly acidic and basic conditions for 24 hours at room temperature or high temperature (120° C.) for 1 hr. […] These conditions are extremely harsh for a peptide or protein.\nThe relative stability of the C—N bond formed in the products was studied using p-cresol as a model phenol. As shown in Scheme 11, p-cresol was reacted with PTAD in tetrahydrofuran in the presence of sodium hydride to provide adduct in 75% isolated yield. Compound 8f was subjected to both strong acidic and basic conditions for 24 hours at room temperature or high temperature (120° C.) for 1 h.\nCompound 4 (4.00 mg, 0.0141 mmol) was heated at 120° C. for 1 h according to the literature. The recovery of 4 was 4.00 mg (quant.).\nCompound 23 (4.00 mg, 0.0141 mmol) was heated at 120° C. for 1 h according to literature. The recovery of 23 was 4.00 mg (quant.)."}, "[2]": {"test": "Stability study of modified p-cresol under hydrolysis conditions", "type": "physicochemical", "conditions": "10% NaOH in methanol, room temperature, 12 h (text: 24 hours)"}},
  "note": "“Also recorded” adds a separate entry of the source. At least one read-out could not be matched to a standard name with certainty.",
  "data": [
    {"smiles": "Cc1ccc(O)c(-n2[nH]c(=O)n(-c3ccccc3)c2=O)c1", "note": "[Compound 4, 1-(2-hydroxy-5-methylphenyl)-4-phenyl-1,2,4-triazolidine-3,5-dione]", "values": [
      {"measurement": "recovery after heat treatment", "setting": "[1]", "value": "quantitatively recovered; also recorded: quant"},
      {"measurement": "recovery of starting material after base treatment", "setting": "[2]", "value": "quantitatively recovered; also recorded: quant"}
    ]}
  ]
}
